Literature values as cited in publication PMC9293725 (Computational and Structural Biotechnology Journal, 2022).

Test system: P. falciparum W2 strain
Settings: read-out: EC50 P. falciparum W2 strain; cited from earlier work

Q: Which EC50 does the source give for `C[S+]([O-])c1ccc(-c2nc(-c3ccncc3)c(-c3ccc(F)cc3)[nH]2)cc1` (stereo not shown) [SB203580] here?
A: The EC50 was 0.012 µM.
